US7803821B2, “Fungicide N-cycloalkyl-carboxamide, thiocarboxamide and N-substituted-carboximidamide derivatives” (Bayer Cropscience SA, priority 2006, dated 2010)
Some of these results come from one statement about several compounds together. At least one structure is not confirmed: it was looked up by name or label, or the drawing left a doubt.

Tests used:
[1] = system: Sphaerotheca fuliginea; assay: In vivo test on Sphaerotheca fuliginea (powdery mildew) on gherkin plants; conditions: 500 ppm, gherkin plants sprayed 24 hours before contamination, grading 21 days after contamination
[2] = system: Mycosphaerella graminicola; assay: In vivo test on Mycosphaerella graminicola (wheat leaf spot) on wheat plants; conditions: 500 ppm, wheat plants sprayed 24 hours before contamination, grading 21 to 28 days after contamination
[3] = system: Pyrenophora teres; assay: In vivo test on Pyrenophora teres (barley net blotch) on barley plants; conditions: 500 ppm, barley plants sprayed 24 hours before contamination, grading 12 days after contamination

Structure (SMILES)	protection (% of efficacy): good (at least 70%) or total [1]	protection (% of efficacy): good (at least 70%) or total [2]	protection: good (at least 70%) or total [3]
CC(c1cccnc1Cl)N(C(=O)c1cn(C)nc1C(F)F)C1CC1 (racemic) [Example 81]	at least 70%	at least 70%	at least 70%
COc1nn(C)cc1C(=O)N(Cc1ccc(Cl)nc1)C1CC1 [Example 74]	–	at least 70%	–
